The values below come from US5880261.

Amino acid sequences for entries named in this document (tags omitted). A change or cut given only in a name is not applied to a line headed by its entry.
UniProt Q9R237: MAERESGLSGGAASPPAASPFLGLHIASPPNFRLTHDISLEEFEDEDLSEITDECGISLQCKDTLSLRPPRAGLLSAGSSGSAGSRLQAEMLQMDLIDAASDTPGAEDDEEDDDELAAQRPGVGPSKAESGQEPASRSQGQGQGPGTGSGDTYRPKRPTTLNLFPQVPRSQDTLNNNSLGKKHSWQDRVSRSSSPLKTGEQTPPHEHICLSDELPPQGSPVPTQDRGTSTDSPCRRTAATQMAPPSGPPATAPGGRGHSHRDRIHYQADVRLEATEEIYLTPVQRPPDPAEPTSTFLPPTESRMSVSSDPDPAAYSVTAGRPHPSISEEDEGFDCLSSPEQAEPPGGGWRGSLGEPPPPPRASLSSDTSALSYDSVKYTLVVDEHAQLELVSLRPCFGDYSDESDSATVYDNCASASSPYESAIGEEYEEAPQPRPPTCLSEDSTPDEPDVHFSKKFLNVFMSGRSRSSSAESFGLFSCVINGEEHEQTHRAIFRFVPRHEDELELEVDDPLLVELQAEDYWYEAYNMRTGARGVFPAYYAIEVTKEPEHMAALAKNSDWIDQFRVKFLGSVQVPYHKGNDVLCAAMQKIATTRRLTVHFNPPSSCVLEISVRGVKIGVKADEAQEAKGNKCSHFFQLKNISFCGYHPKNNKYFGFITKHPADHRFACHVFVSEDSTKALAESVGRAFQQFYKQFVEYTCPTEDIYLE

Series [1] concerns the target T1, Islet-Brain 1 (IB1), overexpressed in betaTC3 cells (Rattus norvegicus) (UniProt Q9R237).
T1 sequence (limits assumed): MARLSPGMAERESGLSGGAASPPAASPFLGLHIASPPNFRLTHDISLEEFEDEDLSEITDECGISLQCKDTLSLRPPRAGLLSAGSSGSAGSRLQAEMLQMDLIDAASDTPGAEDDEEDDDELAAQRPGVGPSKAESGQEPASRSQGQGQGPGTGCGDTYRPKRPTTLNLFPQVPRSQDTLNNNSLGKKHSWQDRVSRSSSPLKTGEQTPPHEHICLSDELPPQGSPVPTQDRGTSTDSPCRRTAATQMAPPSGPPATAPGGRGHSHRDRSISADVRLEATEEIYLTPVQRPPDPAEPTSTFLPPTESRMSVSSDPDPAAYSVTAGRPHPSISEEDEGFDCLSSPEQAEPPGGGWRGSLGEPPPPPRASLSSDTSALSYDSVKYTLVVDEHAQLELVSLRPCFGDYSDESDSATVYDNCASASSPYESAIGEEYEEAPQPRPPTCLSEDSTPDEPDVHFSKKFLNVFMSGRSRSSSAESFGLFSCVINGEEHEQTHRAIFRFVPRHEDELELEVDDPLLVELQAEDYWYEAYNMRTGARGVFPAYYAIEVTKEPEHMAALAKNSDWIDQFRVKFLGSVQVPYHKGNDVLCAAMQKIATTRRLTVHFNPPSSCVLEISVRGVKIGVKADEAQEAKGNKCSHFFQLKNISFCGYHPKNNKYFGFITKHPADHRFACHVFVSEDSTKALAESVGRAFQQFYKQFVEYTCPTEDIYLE
In words: activity in cells. As to conditions: +-0.3 SEM over basal, text states 5 fold, protein in cells, protein details: PBKS/IB1 vector, variant of RIPE3, only the site is given.

For series [2], the system named is GTII/RIPE3-binding activity including IB1 (betaTC3 nuclear extract) (Mus musculus). In words: EMSA. As to conditions: protein in an extract; label: 32P. For orientation: In EMSA bound probe runs differently from free probe, usually more slowly.

For at least one entry, the source does not settle the construct or the ends of the probe. For part of these data: Results from cells or extracts need not show a direct contact. For part of these data: Protein sequences can lack the tags named with them.

Regarding “GATCTGGAAACTGCAGCTTCAGCCCCTCTGGCCATCTGCTGATCCG (double strand) [5x RIPE3-SV40 minimal promoter-luciferase]”, the activity on this sequence in series [1] was 2.9 fold.

With “GATCTGGAAACTGCAGCTTCAGCCCCTCTGGCCATCTGCTGATCCG (double strand) [RIPE3]”, the binding result in series [2] is “binds”.

Take “GTAAAGGGTGTATTGATTGGATTACCATCAATACTCAGCTTCT (double strand) [GTII]”: the binding result in series [2] is on record as “binds”.
